Hit rate of the full screen: of about 390,000 compounds, about 760 (0.19%) were called active. The inconclusive results got no clear call from the source; some entries with a clear call stand among them for comparison. Calls come from the whole dose curve; as a rule, active = well fitted inhibition curve with a large enough effect; inconclusive = small, poorly fitted or top-dose-only effect; inactive = flat fitted curve, though single readings scatter. Potencies beside an inconclusive call are fits to weak or partial responses and may not hold up.
Experiment: qHTS for Inhibitors of Vif-A3F Interactions: qHTS; note: nearly all actives have a fitted effect of over 65% in size; for activity, negative = active: % of control where 0% means no effect
Conditions: HeLa A3F-eYFP + Vif (tagged APOBEC3F with the HIV-1 protein that degrades it), YFP fluorescence increase; series mostly up to 46.1 µM; activity, negative = active: at the top concentration
Summary of the method: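 HeLa cells stably expressing Vif plus C-terminally eYFP-tagged A3F were seeded, incubated overnight at 37 deg C, dosed with compound, incubated overnight again at 37 deg C. Yellow fluorescence (Ex 488/Em 500-530) reported blocked Vif-mediated A3F-eYFP degradation.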
For `C#CCn1c2ccccc2c2nc3ccccc3nc21`, the Potency was inconclusive: 7.94 µM [inhibitor, partial curve, poor fit]. For `Cc1cc(NC(=O)CSc2nc(-c3cccs3)nc3ccccc23)no1`, the Potency was inconclusive: 35.5 µM [inhibitor, single point]. For `CC(=O)c1ccc(N2C(=O)[C@@H]3[C@H](C2=O)[C@H]2c4ccccc4C=NN2[C@@H]3C(C)=O)cc1`, the Potency was inconclusive: 17.8 µM [inhibitor, partial curve, poor fit]. With `N#Cc1c(C(F)(F)F)cc(-c2ccccc2)nc1SCc1nc(N)nc(N2CCOCC2)n1` the Potency was active: 11.2 µM. In the case of `Cc1cc(C(F)F)nn1CC(=O)NC1C(=O)N2C(C(=O)O)=C(CSc3nnnn3C)CSC12` (stereo unspecified), the Potency is reported as inconclusive: 3.55 µM [inhibitor, single point]. With `COc1cccc(NC(=O)N2CCN(c3nnnn3-c3ccccc3)CC2)c1` the Potency was inconclusive: 2.82 µM [inhibitor, partial curve, poor fit]. With `Cc1ccc(C(=O)c2sc3nsc(C)c3c2N)cc1` the Potency was inconclusive: 31.6 µM [inhibitor, partial curve, poor fit]. With `Cc1ccc(N=Nc2c(O)n(CN3CCOCC3)c3ccccc23)cc1` the Potency was inconclusive: 25.1 µM [inhibitor, single point]. With `O=S(=O)(c1ccc(Cl)cc1)N1CCN(CCc2ccccc2)CC1` the Potency was inconclusive: 35.5 µM [inhibitor, single point]. In the case of `CCCn1c(N)c(C(=O)CSc2ncc(C(F)(F)F)cc2Cl)c(=O)[nH]c1=O`, the Potency is reported as inconclusive: 11.2 µM [inhibitor, partial curve, poor fit]. For `COc1ccc(Nc2nc(-c3cccnc3)nc3ccccc23)cn1`, the Potency was inconclusive: 35.5 µM [inhibitor, single point]. For `COc1cc2[nH]c3c(=O)n(N)c(=O)[nH]c3c2cc1OC`, the Potency was inconclusive: 31.6 µM [inhibitor, single point]. For `COc1ccc(NC(=O)CN2C(=O)c3ccccc3S2(=O)=O)cc1OC`, the Potency was inconclusive: 5.62 µM [inhibitor, single point]. For `Cc1nc(SCC(=O)N2CCN(c3ccccn3)CC2)c(C#N)c(C)c1C`, the Potency was inconclusive: 10 µM [inhibitor, partial curve, poor fit]. In the case of `CCOC(=O)C1(CC2CCCCO2)CCN(Cc2nc3ccccc3[nH]2)CC1` (stereo unspecified), the Potency is reported as inconclusive: 5.62 µM [inhibitor, single point]. For `O=S(=O)(Nc1nc2ccccc2nc1Cl)c1ccc2c(c1)OCCO2`, the “activity, negative = active” value was inactive: -6.71%. With `S=c1[nH]nc(-c2cccs2)n1/N=C/c1cn(-c2ccccc2)nc1-c1ccccc1` the Potency was inconclusive: 0.794 µM [inhibitor, full curve, poor fit]. For `Oc1nc(Nc2cccc(Cl)c2)sc1/C=C1\C=Nc2ccccc21`, the “activity, negative = active” value was inactive: -8.61%. With `CCN(CC)c1ccc2cc(C(N)=O)c(=N)oc2c1` the Potency was active: 11.2 µM. For `N#C/C(=C/c1ccc(N2CCOCC2)o1)C(=O)N1CCOCC1`, the Potency was inconclusive: 35.5 µM [inhibitor, single point]. With `COc1ccc(-c2c(=O)n(OC)c3ccccc3[n+]2[O-])cc1OC` the Potency was inconclusive: 35.5 µM [inhibitor, single point]. With `COc1ccc(-n2nc(C(=O)NCC(=O)Nc3ccc(F)cc3)c3ccccc3c2=O)cc1` the Potency was inconclusive: 35.5 µM [inhibitor, single point]. In the case of `CCOC(=O)C1=NN(C(=O)c2ccccc2)C(O)(c2ccc(C)cc2)C1` (stereo unspecified), the Potency is reported as inconclusive: 25.1 µM [inhibitor, single point]. In the case of `Cn1cccc1/C=C1\SC(=S)N(NC(=O)c2ccccc2)C1=O`, the Potency is reported as inconclusive: 6.31 µM [inhibitor, full curve, poor fit]. For `OCCNCc1cccc(OCc2ccc(Cl)cc2)c1`, the “activity, negative = active” value was inactive: -3.1%. In the case of `CCn1c(=N)c(S(=O)(=O)c2ccccc2)cc2c(=O)n3ccccc3nc21`, the “activity, negative = active” value is reported as inactive: -7%. For `Cc1ccc2nc3cc([N+](=O)[O-])cc([N+](=O)[O-])c3cc2c1`, the Potency was inconclusive: 5.62 µM [inhibitor, single point]. With `NC(=S)NN=C1CCC(C2CCCCC2)CC1` (stereo unspecified) the Potency was inconclusive: 3.55 µM [inhibitor, partial curve, poor fit]. For `CCOc1ccc(NC(=O)CN2CCN(CC(=O)Nc3ccc(N(C)C)cc3)CC2)cc1`, the Potency was inconclusive: 20 µM [inhibitor, single point]. For `COc1cccc(CNc2ccc([N+](=O)[O-])cc2C)c1`, the Potency was inconclusive: 4.47 µM [inhibitor, full curve]. With `CC1(C)C(CO)=CC(=O)C2=C1SCC(=O)N2` the “activity, negative = active” value was inactive: 4.73%. In the case of `COC(=O)c1cnn(-c2ccc(Cl)cc2)c1/C=N/NC(N)=S`, the “activity, negative = active” value is reported as inactive: 6.16%. In the case of `CN1/C(=C/C(=S)NC(=O)C2CCC2)C(C)(C)c2ccccc21`, the Potency is reported as inconclusive: 31.6 µM [inhibitor, single point]. For `O=C(COc1ccccc1)Nc1nnc(-c2ccc(Cl)s2)o1`, the Potency was inconclusive: 22.4 µM [inhibitor, single point]. For `CC(=O)CSc1nc2cc3c(cc2cc1C#N)OCCO3`, the Potency was inconclusive: 20 µM [inhibitor, partial curve, poor fit]. In the case of `CN(C)CCn1c2ccccc2c2nc3ccc([N+](=O)[O-])cc3cc21`, the Potency is reported as inconclusive: 11.2 µM [inhibitor, partial curve, poor fit]. With `Cc1ccc(N2CSC3=C(C#N)C(c4cccs4)CC(=O)N3C2)cc1` (stereo unspecified) the “activity, negative = active” value was inactive: -10.8%. For `Cc1cnc(NC(=O)c2cc(S(=O)(=O)N(C)C)ccc2N2CCCC2)s1`, the “activity, negative = active” value was inactive: 0.731%. For `O=Cc1ccc2ccc3cccnc3c2n1`, the Potency was inconclusive: 14.1 µM [inhibitor, single point]. With `O=C(c1ccccc1)N1N=C(c2cccs2)CC1c1ccccc1O` (stereo unspecified) the “activity, negative = active” value was inactive: -3.77%. With `Cc1cc(C)c2nc(N(CCCN(C)C)C(=O)c3ccc4c(c3)CCCC4)sc2c1` the Potency was inconclusive: 17.8 µM [inhibitor, single point]. For `Cc1ccc(C2=NN(S(=O)(=O)c3ccccc3)C(c3ccccc3O)C2)cc1` (stereo unspecified), the Potency was active: 25.1 µM. In the case of `Cc1c(C(=O)N2CCCCC2)c(S(=O)(=O)NCc2ccccc2Cl)c(C)n1C`, the “activity, negative = active” value is reported as inactive: 5.59%. In the case of `Cn1nccc1C(=O)OCC(=O)Nc1ccc(S(N)(=O)=O)cc1`, the Potency is reported as inconclusive: 10 µM [inhibitor, partial curve, poor fit]. For `CC(NC(=S)Nc1ccc(OC(F)F)c(Cl)c1)C(C)(C)C` (stereo unspecified), the Potency was inconclusive: 35.5 µM [inhibitor, single point]. With `O=C(CCC(=O)OCC(=O)c1ccccc1)Nc1cccc2cccnc12` the “activity, negative = active” value was inactive: 0.742%. For `Cc1ccc2c(c1)C(=C(C#N)C#N)CCN2`, the Potency was inconclusive: 25.1 µM [inhibitor, partial curve, poor fit]. For `C/C(=N\NC(=O)c1cc2ccccc2cc1O)c1ccccn1`, the Potency was inconclusive: 28.2 µM [inhibitor, partial curve, poor fit]. With `CC(OC(=O)C1CCCC1)C(=O)Nc1ccc(C(N)=O)cc1` (stereo unspecified) the Potency was inconclusive: 35.5 µM [inhibitor, single point]. For `O=C(CSc1n[nH]c(-c2ccccn2)n1)Nc1ccc(Cl)cc1`, the Potency was active: 7.94 µM. With `CCCN(CCC)c1ccc(/C=C/c2ccc3cc(OCC)ccc3n2)cc1` the Potency was inconclusive: 7.94 µM [inhibitor, partial curve, poor fit]. With `Cc1cccc(NC(=O)CN2C(=O)S/C(=C\c3cc(C)n(C)c3C)C2=O)c1` the Potency was inconclusive: 35.5 µM [inhibitor, single point]. For `O=C(c1ccc(=O)[nH]n1)N1CCN(S(=O)(=O)c2cccc(F)c2)CC1`, the Potency was inconclusive: 2.24 µM [inhibitor, partial curve, poor fit]. For `CCOC(=O)c1c(C)[nH]c(C(=O)/C(C#N)=C/c2ccc(OC)c(OC)c2)c1C`, the Potency was inconclusive: 35.5 µM [inhibitor, single point]. In the case of `CC(=O)Nc1ccc(C)cc1-c1nc2ccccc2n(Cc2cccc(Br)c2)c1=O`, the Potency is reported as inconclusive: 5.62 µM [inhibitor, single point]. For `Cc1sc2nc(SC(C)C)nc(N)c2c1C`, the Potency was inconclusive: 35.5 µM [inhibitor, single point]. For `COc1ccc(CCNc2ccc(C(CC(N)=O)NC(=O)c3ccc(Br)cc3)cc2[N+](=O)[O-])cc1` (stereo unspecified), the Potency was inconclusive: 35.5 µM [inhibitor, single point]. With `COc1ccccc1Sc1nc(-c2ccccn2)ncc1OC` the Potency was inconclusive: 10 µM [inhibitor, partial curve, poor fit]. In the case of `Oc1ccc(-c2csc(Nc3ccc4c(c3)OCO4)n2)c(O)c1`, the “activity, negative = active” value is reported as inactive: 4.74%. For `CCOc1ccc(-c2cn3c(n2)sc2cc(C(=O)NC4CCCc5ccccc54)ccc23)cc1` (stereo unspecified), the Potency was inconclusive: 6.31 µM [inhibitor, single point]. With `O=C(CSc1nnc(NC(=O)C2CC(=O)N(c3ccc(F)cc3)C2)s1)NCc1ccco1` (stereo unspecified) the Potency was inconclusive: 15.8 µM [inhibitor, single point]. In the case of `COc1ccc(NC(=O)c2cn3c4c(ccc(Cl)c4c2=O)OC(C)C3)cc1OC` (stereo unspecified), the Potency is reported as inconclusive: 35.5 µM [inhibitor, single point]. With `CCCN(c1ccc(C(C)C)cc1)S(=O)(=O)c1c(C)[nH]c(=O)[nH]c1=O` the Potency was inconclusive: 3.16 µM [inhibitor, single point]. With `CCOC(=O)/C(=N/Nc1ccccc1)Sc1nnnn1-c1ccc(C)cc1` the Potency was inconclusive: 2.82 µM [inhibitor, partial curve, poor fit]. With `Cc1cc(C)c(C#N)c(SCc2nnc(-c3ccccc3)o2)n1` the “activity, negative = active” value was inactive: -11.5%. With `CCOc1ccc2oc(=O)cc(CN3CCN(c4ccccc4)CC3)c2c1` the “activity, negative = active” value was inactive: 9.19%.
Potency is the fitted concentration of half-maximal effect.
